Test results published in PubChem BioAssay AID1259354 (Paczesny and Yang Labs, IUPUI and University of Michigan, 2018).
Where “and” joins values, the source holds several entries; their conditions need not be identical. Equal values may be shown once. The campaign covered roughly 78,000 compounds. About 1,800 (2.3%) were called active. Inconclusive results, whose numbers are uncertain, are shown with a selection of clear calls. Cut-off read from the data, not from the text of the source: active = inhibition above about 30%; inconclusive = mostly about 10% to 28%; inactive = weaker than that.

Sequences of proteins named here, by UniProt entry; tags and fusion partners are left off. A change or cut given only in a name is not applied to a line headed by its entry.
UniProt Q01638: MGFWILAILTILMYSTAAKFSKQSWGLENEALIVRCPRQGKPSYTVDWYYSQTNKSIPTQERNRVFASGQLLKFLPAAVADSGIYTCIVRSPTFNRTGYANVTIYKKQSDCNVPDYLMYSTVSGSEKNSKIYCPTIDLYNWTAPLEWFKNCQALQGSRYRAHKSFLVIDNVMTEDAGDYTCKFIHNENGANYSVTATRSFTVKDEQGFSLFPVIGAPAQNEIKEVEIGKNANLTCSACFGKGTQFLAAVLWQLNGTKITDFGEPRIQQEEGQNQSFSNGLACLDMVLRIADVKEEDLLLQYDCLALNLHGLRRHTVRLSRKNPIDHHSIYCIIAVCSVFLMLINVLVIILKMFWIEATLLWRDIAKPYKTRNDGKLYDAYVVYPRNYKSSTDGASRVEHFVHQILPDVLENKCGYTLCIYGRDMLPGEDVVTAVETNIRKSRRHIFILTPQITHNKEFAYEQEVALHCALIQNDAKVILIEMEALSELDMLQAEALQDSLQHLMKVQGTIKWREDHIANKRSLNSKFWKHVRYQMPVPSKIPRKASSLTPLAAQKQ

The compounds below were run against Interleukin-1 receptor-like 1 (Homo sapiens) (UniProt Q01638) (assay: blocks human ST2 binding to IL-33, primary screen, biochemical, AlphaLISA (AID 1259354)). Settings: AlphaLISA ST2-Fc/biotin-IL-33 interaction, 1 h; at 17 µM, active compounds read high.

SMILES | inhibition
COc1cc(-c2n[nH]c(Cc3ccccc3)n2)nc(OC)n1 | inconclusive: 16%
O[C@@H]1C[C@@H](c2nc(-c3ccc(F)cc3)no2)N(Cc2cccs2)C1 | inconclusive: 20%
COc1ccc(C2C(C(=O)NC3CCCCCC3)c3cc(OC)c(OC)cc3C(=O)N2C)cc1 (stereo not given) | inactive
CCOc1ccc(-c2cccc3ccnn23)nn1 | inactive
O=C(COc1ccc(Cl)cc1Cl)Nc1cccc(-c2nc3ncccc3o2)c1 | inconclusive: 18%
O=C(NCc1ccccc1C(F)(F)F)C1CC12CCN(C(=O)C13CC4CC(CC(C4)C1)C3)CC2 (stereo not given) | inconclusive: 11%
Cc1ccc(-c2nc3ccccn3c2Nc2ccc3c(c2)OCCO3)o1 | active: 35%
CCOc1ccccc1C(=O)NCc1nc2cccnc2n1Cc1ccc(OC)cc1 | inconclusive: 14%
Cc1oc(-c2ccccc2NS(C)(=O)=O)nc1CN(C)Cc1ccc(OC(F)F)cc1 | inconclusive: 11%
CC(C)CCSc1nc2c(c(=O)[nH]c(=O)n2C)n1CC(O)COc1ccc(Cl)cc1 (stereo not given) | inconclusive: 21%
COc1ccc(C2SCCN2S(=O)(=O)c2ccc(C)c([N+](=O)[O-])c2)cc1Br (stereo not given) | inconclusive: 26%
CCOC(=O)c1[nH]ncc1[C@@H]1C[C@H](NC(C)=O)C[C@H](CC(C)C)O1 | inactive
O=C(Nc1ccc(-c2nc3ncccc3o2)cc1)c1ccc([N+](=O)[O-])cc1 | inconclusive: 17%
CCOC(=O)c1ccc(Nc2c3c(nc4ccccc24)CCC3)cc1 | inactive
CCCN(Cc1ccc(OC)cc1)C(=O)c1cc(C(F)(F)F)nn1C | inactive
O=C(NCCCn1ccnc1)c1ccc(C(=O)NCCCn2ccnc2)cc1 | inconclusive: 16%
CN1CC2(CCCN(C(=O)c3cccc4nccnc34)C2)OC1=O (stereo not given) | inconclusive: 12%
Cc1ccc(CNC(=O)N2CCCCC2CCN2CCOCC2)cc1 (stereo not given) | inactive
CC(c1ccccc1)n1c(Cn2cccn2)nnc1SCC(=O)O (stereo not given) | inconclusive: 17%
CC(C)c1cc(C2CCN(Cc3ccc(-c4ccn[nH]4)o3)CC2)[nH]n1 | inactive
CC(=O)Nc1ccc(S(=O)(=O)N2CCN(C3CCN(Cc4ccccc4)CC3)CC2)cc1 | inactive
COCCOC(=O)C1=C(C)N=C2SCCC(=O)N2C1c1cccc(Oc2ccccc2)c1 (stereo not given) | inactive
O=C(Nc1nnc(N=Cc2ccco2)s1)c1ccc(S(=O)(=O)N2CCCCC2)cc1 | inactive
Cc1nnc([C@H]2CCN(Cc3cnc4ccccc4c3)C2)o1 | inactive

SMILES | inhibition
Cc1ccc(C(C)(C)NC(=O)[C@H](Cc2ccccc2)N(C)C)cc1 | inconclusive: 13%
Fc1ccc(F)c(CN2CCN(c3ncccn3)CC2)c1 | inconclusive: 13%
O=C(Nc1nnc(CCS(=O)(=O)c2ccc(Cl)cc2)s1)c1ccc([N+](=O)[O-])cc1 | inactive
COc1cc(OC)c(OC)cc1/C=C1N=C(/C=C/c2ccccc2OC)OC\1=O | inconclusive: 24%
CN(Cc1ccccc1)c1ncccc1CNC(=O)C1CCC(=O)NC1 (stereo not given) | inactive
Cc1cccc(CSC2=NCCN2C(=O)c2cc3ccccc3o2)c1 | inactive
CCCC(=O)Nc1cccc(C(=O)NC(C)Cc2cc(C)[nH]n2)c1 (stereo not given) | inactive
N#Cc1cc2c(nc1SCC(N)=O)CCCCC2 | inconclusive: 12%
CN(C)CCNC(=O)c1ccc2c(c1)NC(=O)C(N1CCCCC1)S2 (stereo not given) | inactive
O=C(c1cc(-c2ccc(Cl)c(Cl)c2)nc2ccccc12)N1CCOCC1 | inactive
Cc1ccc2nc(SCc3ccc(F)cc3)[nH]c2c1 | inconclusive: 20%
CS(=O)(=O)N1CCCC(C(=O)NC2CC2)C1 (stereo not given) | inactive
CN(Cc1ncc[nH]1)Cc1ccc(-c2ccccc2Cl)o1 | inconclusive: 17%
COCCCn1ccnc1-c1cnc(OC)nc1 | inconclusive: 10%
Cc1[nH]nc(CCC(=O)N2CCc3c(nc[nH]c3=O)C2)c1C | inactive
Cc1ccc(-c2nc3ccccn3c2Nc2ccccc2)o1 | inconclusive: 17%
CC(=O)N1CCc2cc(C(=O)CN3CCN(c4ccc(F)cc4)CC3)ccc21 | inconclusive: 14%
Cc1cc(C)cc(NC(=O)Cn2cnc3c(oc4ccccc43)c2=O)c1 | inactive
COc1ccc(-c2cn3c4ccccc4nc3n2CCN2CCOCC2)cc1 | inconclusive: 22%
Cc1ccccc1CSC1=NCCN1C(=O)c1ccccc1F | inactive
O=C(O[C@@H]1[C@@H](O)[C@H](O)[C@@H](CO)O[C@H]1c1c(O)cc(O)c(C(=O)c2ccc(O)cc2)c1O)c1ccc(O)cc1 | inconclusive: 15%
O=[N+]([O-])c1ccccc1/C=C/CN1CCN(C/C=C/c2ccccc2)CC1 | inconclusive: 23%
CC1=CC(=O)C(C(C)C)=C/C1=N\Oc1c([N+](=O)[O-])cc(Cl)cc1[N+](=O)[O-] | active: 62%
COc1ncc(-c2ccc(C(C)N3CCOCC3)cc2)c(OC)n1 (stereo not given) | inconclusive: 27%

Sorted by number of heavy atoms (high to low): some entries from above
SMILES | inhibition
CC(C)CCSc1nc2c(c(=O)[nH]c(=O)n2C)n1CC(O)COc1ccc(Cl)cc1 (stereo not given) | inconclusive: 21%
O=C(NCCCn1ccnc1)c1ccc(C(=O)NCCCn2ccnc2)cc1 | inconclusive: 16%
CN1CC2(CCCN(C(=O)c3cccc4nccnc34)C2)OC1=O (stereo not given) | inconclusive: 12%
CCOc1ccc(-c2cccc3ccnn23)nn1 | inactive

Continued:

SMILES | inhibition
COc1cc(C2CC(=O)c3c(cc(O)c(CC=C(C)C)c3O)O2)ccc1O (stereo not given) | inactive
CC1=NN(c2nc(-c3cccc([N+](=O)[O-])c3)cs2)C(=O)/C1=C\c1ccc(N(C)C)cc1 | inconclusive: 26%
O=C(O)CCc1ccc(-c2cccs2)n1-c1ccc(O)cc1 | inconclusive: 22%
CCN(Cc1ccccc1)C(=O)c1cc2cc3ccc(OC)cc3nc2s1 | inconclusive: 22%
C=CCNC(=O)C(C)N(c1ccc(OCC)cc1)S(C)(=O)=O (stereo not given) | inactive
Cc1ccc(NS(=O)(=O)c2cc(Br)cc3c2N(C(=O)C2CC2)CC3)cc1Cl | inconclusive: 15%
CC(=O)c1c(C(C)=O)c(C)n(-c2ccc3ncccc3c2)c1C | inconclusive: 19%
C=CCN(CC=C)S(=O)(=O)c1ccc(C(=O)Nc2sc3c(c2C#N)CCC3)cc1 | inactive
O=C(Nc1ccc(F)cc1)c1cc2c(=O)oc3ccccc3c2s1 | inactive
O=C(CCc1c[nH]c2ccccc12)NC1CCCc2c1cnn2-c1ccccc1F (stereo not given) | inconclusive: 16%
Cc1ccc(C2=NN(C(=O)CCCC(=O)O)C(c3ccc(Br)cc3)C2)cc1 (stereo not given) | inconclusive: 13%
O=C(CCCn1cnc([N+](=O)[O-])n1)Nc1ccc2c(c1)OCO2 | inconclusive: 15% and inconclusive: 14%
CN1C(N)=NC(=O)/C1=C/c1ccc(Br)s1 | inactive
c1ccc(COC2CCCN(Cc3cnc(CC4CCCC4)[nH]3)C2)nc1 (stereo not given) | inconclusive: 15%
CCC(C)Sc1nc2c(c(=O)n1-c1ccc(F)cc1)SCC2 (stereo not given) | inconclusive: 12%
CNC(=O)N1c2ccccc2CCc2ccccc21 | inconclusive: 12%
c1c(CN2CCCCCCC2)nn2c1CNCCC2 | inactive
CN1CCCC1CCOC(C)(c1ccccc1)c1ccc(Cl)cc1 (stereo not given) | inconclusive: 12%
Cc1ccccc1N1CCN(Cc2cc3c(cc2[N+](=O)[O-])OCO3)CC1 | inconclusive: 29%
CC(=NS(=O)(=O)c1ccc(C)cc1)N1CCCCC1 | inconclusive: 12%
Cc1cc(N2CCCC2)nc(N2CCN(S(=O)(=O)c3ccccc3)CC2)n1 | inconclusive: 11%
COc1cc(/C=C2\SC(=N)N(c3ccc4c(c3)OCO4)C2=O)cc(OC)c1O | inconclusive: 22%
CCCc1[nH]n(-c2nc3ccccc3s2)c(=O)c1C(C)=NCCO | inactive
COc1ccc(C(=O)Nc2cccc(F)c2)cc1OC | inactive

SMILES | inhibition
CCCCNc1c2c3c(cccc3n(C)c1=O)C(=O)c1ccccc1-2 | inconclusive: 25%
Cc1ccc(-c2nnc([C@H]3CCN(C(=O)Nc4ccc(F)cc4)C3)o2)cc1 | inconclusive: 23%
O=C(CCN1CCN(Cc2ccccc2)CC1)N1CCCc2c1c(=O)oc1ccc(O)cc21 | inconclusive: 20%
COCC(=O)N1CCCN(C(=O)CC2C=CCC2)CC1 (stereo not given) | inactive
Cn1nc(C(=O)N2CC[C@H](CO)[C@H](O)C2)c2c1CCCC2 | inconclusive: 17%
COc1ccc(OC)c(NC(=O)c2ccc(C)o2)c1 | inactive
CCc1cc(NCc2cccnc2-n2ccnc2)nc(N(C)C)n1 | inconclusive: 11%
CN(Cc1ccc(C#CCO)s1)C1Cc2ccccc2C1 | inconclusive: 15%
CN(C)c1ccc(-c2nc3cc(NC(=O)c4ccncc4)ccc3o2)cc1 | inconclusive: 14%
O=[N+]([O-])c1ccc(-c2ncnn2-c2ccc(Br)cc2F)cc1 | inconclusive: 21%
CN1CCN2C[C@@H](NC(=O)c3nc4ccccc4[nH]3)C[C@H]2C1 | inactive
Fc1ccc(N2CCC(N3CCCC(Nc4ccccc4)C3)CC2)cc1 (stereo not given) | inconclusive: 12%
CC(C)C(NC(=O)C1CCCCC1)C(=O)NCc1ccco1 (stereo not given) | inactive
Cc1cccc(SC2CCN(C(=O)c3cn(-c4ccccc4)nn3)CC2)c1 | inconclusive: 16%
Cc1ccc(NC(=O)CN2C(=O)C(=O)c3ccccc32)c(C)c1 | inconclusive: 22%
CCOc1ccc(C2C(C(=O)Nc3ccccc3OC)=C(C)Nc3nnnn32)cc1 (stereo not given) | inconclusive: 18%
O=C(Nc1cccc2nsnc12)c1cccnc1 | inconclusive: 13%
CCc1ccc(C2CC(c3ccccc3)Nc3nc(N)nn32)cc1 (stereo not given) | inconclusive: 22%
CC(C)(CC(=O)O)CC(=O)N[C@H]1CO[C@H]2[C@@H]1OC[C@@H]2n1nnnc1-c1ccccc1 | inconclusive: 18%
CCN(CC)c1ccc(/C=C2\N=C(SC)SC2=O)cc1 | active: 63%
O=C(CO)Nc1nc(-c2ccc(Br)cc2)cs1 | inconclusive: 10%
CCOc1ccc2nc(NC(=O)c3ccc([N+](=O)[O-])c(C)c3)sc2c1 | inconclusive: 15%
Cn1cnc2c1c(=O)n(Cc1ccccc1C#N)c(=O)n2C | inconclusive: 16%
